These are yes or no findings as the source states them, for the method shown. Binding calls can cover weak binding; strength is not graded here.
Molecular target: T1, Pseudomonas phage Φ6 major capsid protein P1 (Pseudomonas phage Φ6) (UniProt P11126)
T1 sequence: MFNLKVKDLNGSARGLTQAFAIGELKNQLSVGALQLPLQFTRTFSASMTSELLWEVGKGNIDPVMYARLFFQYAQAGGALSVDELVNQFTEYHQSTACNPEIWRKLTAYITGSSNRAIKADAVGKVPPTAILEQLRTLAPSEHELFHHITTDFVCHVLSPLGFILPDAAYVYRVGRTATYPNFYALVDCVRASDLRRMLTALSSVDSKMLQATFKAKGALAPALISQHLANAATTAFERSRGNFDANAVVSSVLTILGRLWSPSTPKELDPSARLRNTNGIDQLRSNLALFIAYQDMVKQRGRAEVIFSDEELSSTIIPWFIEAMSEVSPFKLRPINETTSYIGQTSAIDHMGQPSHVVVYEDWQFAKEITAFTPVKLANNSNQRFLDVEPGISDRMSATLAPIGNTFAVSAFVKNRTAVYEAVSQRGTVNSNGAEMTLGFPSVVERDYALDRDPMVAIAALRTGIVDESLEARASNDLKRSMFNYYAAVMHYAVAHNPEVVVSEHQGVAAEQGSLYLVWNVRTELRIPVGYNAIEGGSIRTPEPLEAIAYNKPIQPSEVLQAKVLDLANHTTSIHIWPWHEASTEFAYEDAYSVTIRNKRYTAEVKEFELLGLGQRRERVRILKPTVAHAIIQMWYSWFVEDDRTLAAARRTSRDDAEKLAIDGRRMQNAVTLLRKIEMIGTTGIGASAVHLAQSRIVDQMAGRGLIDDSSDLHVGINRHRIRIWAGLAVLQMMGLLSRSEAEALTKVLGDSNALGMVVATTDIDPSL
Experiment: co-sedimentation; in vitro self-assembly of complete PCs from purified P1, P4, P7 and P2 at 1×P2; rate-zonal centrifugation in 10% to 30% sucrose, mean P2 copies per particle from SDS-PAGE; both purified

Pseudomonas phage Φ6 minor protein P7
binding: binds

From article PMC6168860, “Dual Role of a Viral Polymerase in Viral Genome Replication and Particle Self-Assembly” (mBio, 2018)
